This is one part of the list. These are further read-outs of the screen, such as a control signal, another cell line or another target. No call is given for them. The list favours compounds with an active or inconclusive main result. Words in brackets tell the shape of the fitted curve; partial curves, single points and poor fits give uncertain potencies.
Test: qHTS Assay for Modulators of Lamin A Splicing
Conditions: HeLa LMNA splicing GFP/RFP minigene ratio, 48 h
In short: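 Read-out is the ratio of GFP to DsRed2 object intensity, acquired by 488 nm laser-scanning cytometry on HeLa lamin A-EGFP minigene reporter cells. Compound incubation 48 hrs at 37 °C in Opti-MEM with 2% FBS; DMSO 0.5% final.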

[1] = measured here: RFP viability control channel
[2] = measured here: GFP splicing reporter channel

For CCOc1ccc(Br)cc1S(=O)(=O)Nc1ccc(Cl)c(S(=O)(=O)N(CC)c2ccccc2)c1, the AC50 [1] was 35.5 µM [rising, single point].
With CC(C)(C)n1nnnc1C(c1cccs1)N1CCCc2ccccc21 (stereo unspecified) the AC50 [2] was 22.4 µM [rising, partial curve, poor fit].
In the case of CN(C(=O)CSc1nnc(-c2ccccc2F)o1)C1CCCCC1, the AC50 [2] was 0.0282 µM [rising, full curve].
For O=C(Nc1ccc(N2CCOCC2)cc1)C1(c2ccc(Cl)cc2)CCC1, the AC50 [1] was 35.5 µM [rising, single point].
With CCCCCCOc1ccc(OC(=O)c2ccncc2)cc1 the AC50 [1] was 22.4 µM [rising, single point].
In the case of O=C(/C=C/Nc1ccccc1Br)c1ccccn1, the AC50 [2] was 17.8 µM [rising, single point].
With NC(=O)c1c(NC(=O)CSc2nnc(-c3ccco3)n2-c2ccccc2)sc2c1CCC2 the AC50 [1] was 15.8 µM [rising, single point].
For O=C(NC(Cc1c[nH]c2ccccc12)C(=O)Nc1ccc(OC(F)(F)F)cc1)c1cccs1 (stereo unspecified), the AC50 [1] was 31.6 µM [rising, single point].
For COc1ccc(-c2noc(CCCOc3ccc(Cl)cc3Cl)n2)cc1, the AC50 [1] was 31.6 µM [rising, single point].
In the case of c1ccc2oc(-c3ccc(Nc4nc(N5CCCCC5)nc(N5CCOCC5)n4)cc3)nc2c1, the AC50 [2] was 35.5 µM [rising, single point].
In the case of COc1cc(NC(=O)Nc2cccc(-c3noc(C)n3)c2)cc(OC)c1OC, the AC50 [2] was 0.794 µM [falling, partial curve].
In the case of COc1ccccc1Nc1nnc(SCC(=O)c2cc(C)n(CC3CCCO3)c2C)s1 (stereo unspecified), the AC50 [2] was 4.47 µM [rising, partial curve, poor fit] and the AC50 [1] was 12.6 µM [rising, partial curve, poor fit].
In the case of Cc1ccc(NCc2nnc(SCC(=O)N3c4ccccc4Sc4ccccc43)o2)c(C)c1, the AC50 [1] was 22.4 µM [rising, partial curve, poor fit].
For Cc1cc2ncn(-c3ncnc4sc5c(c34)CCC(C)C5)c2cc1C (stereo unspecified), the AC50 [2] was 25.1 µM [falling, single point] and the AC50 [1] was 12.6 µM [falling, partial curve].
In the case of C[C@]12C=CC(=O)C=C1CC[C@@H]1[C@@H]2[C@@H](O)C[C@@]2(C)[C@H]1CC[C@]2(O)C(=O)COC(=O)CCC(=O)O, the AC50 [2] was 0.0891 µM [rising, full curve, poor fit] and the AC50 [1] was 20 µM [rising, partial curve].
In the case of Cc1ccc(C2CN(C)C3(C(=O)Nc4ccccc43)C23COc2ccccc2C3=O)cc1 (stereo unspecified), the AC50 [2] was 35.5 µM [falling, single point] and the AC50 [1] was 35.5 µM [falling, single point].
For COC(=O)[C@@H]1[C@H]2C[C@H]3c4[nH]c5ccccc5c4CCN3C[C@@H]2CC[C@@H]1O, the AC50 [2] was 0.02 µM [falling, full curve, poor fit].
In the case of Cc1cc(C)cc(Nc2nc(-c3ccc(S(=O)(=O)N4CCCC4)cc3)cs2)c1, the AC50 [1] was 12.6 µM [rising, partial curve, poor fit].
For Cc1ccc(OCC(=O)Nc2ccc(Cl)c(-c3nc4ncccc4o3)c2)c(C)c1, the AC50 [2] was 3.98 µM [falling, partial curve, poor fit] and the AC50 [1] was 2.51 µM [falling, partial curve, poor fit].
In the case of O=C(CSc1ncccc1-c1nc2ccccc2[nH]1)N1CCN(c2ccccc2F)CC1, the AC50 [2] was 25.1 µM [rising, single point] and the AC50 [1] was 35.5 µM [rising, single point].
With COc1ccc(N(C(=O)c2ccccc2)S(=O)(=O)c2cccs2)cc1 the AC50 [2] was 11.2 µM [falling, partial curve].
For CC(C)(C)c1ccc(CN2CCN([C@H](c3ccccc3)c3ccc(Cl)cc3)CC2)cc1, the AC50 [2] was 0.00631 µM [falling, full curve, poor fit] and the AC50 [1] was 14.1 µM [rising, partial curve].
For CC(C)(C)c1ccc(OCC(=O)Nc2ccc(S(=O)(=O)Nc3ncccn3)cc2)cc1, the AC50 [1] was 0.562 µM [falling, full curve, poor fit].
With O=C1Nc2ccc(Cl)cc2C(C#CC2CC2)(C(F)(F)F)O1 (stereo unspecified) the AC50 [2] was 5.62 µM [rising, partial curve, poor fit].
In the case of COc1ccc(CCNC(=O)CCCCCNc2nc(=S)[nH]c3ccccc23)cc1OC, the AC50 [1] was 28.2 µM [rising, single point].
For O=C1NC2(CCCCC2)C(=O)N1CCN1C(=O)c2ccccc2C1=O, the AC50 [1] was 0.0398 µM [falling, full curve].
In the case of CN(C(=O)COc1nnc(-c2cccs2)c(-c2cccs2)n1)c1ccccc1, the AC50 [2] was 14.1 µM [rising, single point].
With O=C(Nc1ccccc1)Nc1ccc(F)c([N+](=O)[O-])c1 the AC50 [2] was 17.8 µM [rising, single point] and the AC50 [1] was 35.5 µM [rising, single point].
For CCOC(=O)c1c(NC(=O)CSc2nnc(-c3c[nH]c4ccccc34)n2CC)sc2c1CCCC2, the AC50 [2] was 14.1 µM [rising, partial curve] and the AC50 [1] was 14.1 µM [rising, partial curve].
In the case of Cc1nn(C)c2c1c(-c1ccccc1)cc(=O)n2CC(=O)Nc1ccccc1C(F)(F)F, the AC50 [2] was 0.251 µM [rising, full curve, poor fit].
For Cc1ccc(OCC(=O)Nc2ccc3nc(SCC(=O)N4CCOCC4)sc3c2)cc1, the AC50 [2] was 8.91 µM [falling, partial curve, poor fit].
For O=C(Nc1ncc(Cc2ccc(C(F)(F)F)cc2)s1)c1ccc(-c2cccc([N+](=O)[O-])c2)o1, the AC50 [2] was 3.55 µM [rising, full curve] and the AC50 [1] was 6.31 µM [rising, partial curve].
For COc1ccc(C2=NOC(C(=O)NCc3ccco3)C2)cc1OC (stereo unspecified), the AC50 [2] was 8.91 µM [falling, partial curve] and the AC50 [1] was 8.91 µM [falling, partial curve].
With COc1ccc(OC)c(-c2csc(NC(=O)C3c4ccccc4Oc4ccccc43)n2)c1 the AC50 [2] was 7.94 µM [falling, partial curve, poor fit] and the AC50 [1] was 15.8 µM [falling, partial curve, poor fit].
